Experimental data from PubChem BioAssay AID540256 (National Center for Advancing Translational Sciences (NCATS), 2011).
The campaign covered roughly 300,000 compounds. About 3,700 (1.2%) were called active. This list was built around the results that the source calls inconclusive (neither active nor inactive); the mix of calls is not that of the screen. Calls come from the whole dose curve; tested in HEK293 cells. A potency beside an inconclusive call is a rough fit, not a confirmed value.
Potency is the fitted concentration of half-maximal effect.

Experiment: qHTS for Inhibitors of binding or entry into cells for Lassa Virus; note: nearly all actives have a fitted effect of over 50% in size
Conditions: Lassa virus pseudotype entry inhibition, cell reporter; series mostly up to 37.9 µM
In the case of `CC12CCC(C(=O)Nc3ccc4c(c3)OCCO4)(OC1=O)C2(C)C` (configuration not stated), the Potency is reported as inconclusive: 20.6 µM [activator, single point]. With `CN(Cc1cc2ccccc2[nH]c1=O)S(=O)(=O)c1ccccc1` the Potency was inconclusive: 4.47 µM [inhibitor, full curve, poor fit]. In the case of `Cc1csc(=Nc2cccnc2)n1Cc1ccco1`, the Potency is reported as inconclusive: 2.51 µM [activator, partial curve, poor fit]. For `COc1ccc(OC)c(C2C(C(=O)c3cc4ccccc4o3)=C(O)C(=O)N2c2cc(C)on2)c1` (configuration not stated), the Potency was inconclusive: 0.447 µM [inhibitor, full curve, poor fit]. In the case of `CC(C)Sc1nc(N2CCOCC2)c2c3c(sc2n1)COC(C)(C)C3`, the Potency is reported as inconclusive: 29.1 µM [inhibitor, single point]. For `CC1=NN(c2ccccc2)C(=O)C1c1ccccc1` (configuration not stated), the Potency was inconclusive: 1.84 µM [activator, full curve]. For `N#CC1(NC(=O)Cn2ncc(Cl)c(Cl)c2=O)CCCCC1`, the Potency was inconclusive: 8.91 µM [inhibitor, partial curve, poor fit]. In the case of `Cc1ccc2c(=O)cc(C(=O)Nc3ccc(S(=O)(=O)Nc4onc(C)c4C)cc3)oc2c1`, the Potency is reported as “inactive”. For `O=C(C1CC1)N1N=C(c2ccccc2)CC1(O)C(F)(F)C(F)(F)F` (configuration not stated), the Potency was inconclusive: 14.1 µM [activator, partial curve, poor fit]. In the case of `O=C(C1CCN(S(=O)(=O)c2ccccc2)CC1)N(CCc1ccccc1)Cc1ccco1`, the Potency is reported as inconclusive: 14.6 µM [inhibitor, partial curve, poor fit]. For `Cc1cc(C)cc(NS(=O)(=O)c2ccc(NC(=O)C3CCCCC3C(=O)O)cc2)c1` (configuration not stated), the Potency was inconclusive: 12.6 µM [activator, partial curve]. For `Cc1cc(C)cc(NC(=O)C(=O)NCC2CCCN2S(=O)(=O)c2cccs2)c1` (configuration not stated), the Potency was inconclusive: 12.6 µM [inhibitor, single point]. For `O=C(NC1CC1)c1ccc(Cn2c(SCc3ccccc3F)nc3cccnc32)cc1`, the Potency was “inactive”. For `Cc1cccc(C(=O)Nc2ccccc2N2CCN(c3ccc(F)cc3)CC2)c1`, the Potency was inconclusive: 0.116 µM [inhibitor, full curve, poor fit]. For `O=C(CN1CCOCC1)c1cccc2ccccc12`, the Potency was inconclusive: 35.5 µM [activator, partial curve, poor fit]. With `COc1ccc(NC(=O)Cn2c(=O)n(CCC(=O)NCCc3ccc(OC)c(OC)c3)c(=O)c3ccccc32)cc1Cl` the Potency was “inactive”. With `O=C(NCCc1ccccc1)NC1CCCCC1` the Potency was inconclusive: 11.6 µM [inhibitor, partial curve, poor fit].
